# Measurements from the supplement of paper PMC12067093, “Discovery and optimisation of a covalent ligand for TRIM25 and its application to targeted protein ubiquitination” (Chemical Science, 2025).
# This is one part of the list.
# Compound: CC1Cc2ccccc2N1C(=O)C1CCCN(C1)C(=O)CCl (mixture of isomers) [TRIM25 ligand 11 (diastereomer mixture)]
# Assay: probe-labelled cysteine peptide fold change vs DMSO (competition) (log2 fold change); higher = less target engagement (more negative = stronger competition)
# Conditions: THP-1, incubation time: 4 h
# 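Further: competitive chemoproteomic profiling in live THP-1 cells with an iodoacetamide desthiobiotin (IA-DTB) probe, comparing probe-labelled peptide intensities in compound-treated cells against DMSO-treated controls.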
Target,probe-labelled cysteine peptide fold change (10 µM),probe-labelled cysteine peptide fold change (50 µM)
DOHH_Q9BU89_122_QYSSDPVIEVAETCQLAVR (UniProt Q9BU89),-0.239,-0.233
DYNLT1_P63172_93_NGAGLHTASSCFWDSSTDGSCTVR (UniProt P63172),0.105,0.0583
DYNLT3_P51808_8_HCDEVGFNAEEAHNIVK (UniProt P51808),-0.112,-0.158
DYNC1H1_Q14204_2639_TFDHYCEYRR (UniProt Q14204),-0.177,-0.106
DYNC1H1_Q14204_633_VQYPQSQACK (UniProt Q14204),0.161,0.153
DSCR3_O14972_219+221_VETCGCAEGYAR (UniProt O14972),0.076,0.0699
EARS2_Q5JPH6_140_TGAAYPCFCSPQR (UniProt Q5JPH6),-0.0787,0.0707
EAPP_Q56P03_210_AMFVMNCSINK (UniProt Q56P03),0.122,0.203
DUSP23_Q9BVJ7_53_GPPHSDSCPGLTLHR (UniProt Q9BVJ7),0.0414,-0.0244
DUS3L_Q96G46_396_TVEVDFVDINVGCPIDLVYK (UniProt Q96G46),0.0383,-0.0463
E4F1_Q66K89_361_ALAPEPPVSQELPCSSEGSR (UniProt Q66K89),0.214,0.115
EAF1_Q96JC9_15_MNGTANPLLDREEHCLR (UniProt Q96JC9),0.0349,0.0146
DNPH1_O43598_26_GEPGRPALYFCGSIR (UniProt O43598),-0.11,-0.123
DSN1_Q9H410_65_KGGNCDLSHQER (UniProt Q9H410),-0.183,-0.238
DNPH1_O43598_117_ILCLFRPQSGR (UniProt O43598),-0.158,-0.121
DOK3_Q7L591_133+144_LADCVSVLPADGESCPR (UniProt Q7L591),-0.268,-0.159
DOCK2_Q92608_1408_NAPGQYIQCFTVQPVLDEHPR (UniProt Q92608),0.0558,0.172
DOCK5_Q9H7D0_1532_ISNCVQQHAWDR (UniProt Q9H7D0),-0.07,-0.0262
DYNC1H1_Q14204_3712_SSLQSQCLNEVLK (UniProt Q14204),0.0297,0.0508
DPP3_Q9NY33_654_ALYEGYATVTDAPPECFLTLR (UniProt Q9NY33),-0.202,-0.11

Target,probe-labelled cysteine peptide fold change (10 µM),probe-labelled cysteine peptide fold change (50 µM)
EAF2_Q96CJ1_29_CAFHTVR (UniProt Q96CJ1),0.111,0.0585
EBNA1BP2_Q99848_56_QCLAEFKR (UniProt Q99848),-0.164,-0.0934
DYNC1H1_Q14204_4510_NIHVCLGGLFVPEAYITATR (UniProt Q14204),-0.0375,0.113
DUSP23_Q9BVJ7_67_IPDFCPPAPDQIDR (UniProt Q9BVJ7),-0.0758,-0.026
DOK2_O60496_132_QSRPCMEENELYSSAVTVGPHK (UniProt O60496),0.0669,-0.283
DRG1_Q9Y295_195_GGINLTATCPQSELDAETVK (UniProt Q9Y295),0.0674,-0.000169
DPP9_Q86TI2_184_TQCSGPR (UniProt Q86TI2),-0.111,-0.073
DOCK8_Q8NF50_939_MSYYCSGSSDAPSSPAAPRPASK (UniProt Q8NF50),-0.143,-0.265
DUS2_Q9NX74_475_AQELAQPGDLCK (UniProt Q9NX74),0.031,-0.0911
DTX3L_Q8TDB6_159_AYITTLCPSIR (UniProt Q8TDB6),-0.0664,-0.172
DPH5_Q9H2P9_161_QNGMHTLCLLDIK (UniProt Q9H2P9),-0.104,-0.0215
DYNC1H1_Q14204_4438_QDLADVVQVCEGKK (UniProt Q14204),0.164,0.147
DOCK6_Q96HP0_1619_HAELGNHAEAAQCMVHAAALVAEYLALLEDHR (UniProt Q96HP0),0.167,-0.238
DNMT1_P26358_62_NQLCDLETK (UniProt P26358),-0.174,-0.315
DTX3L_Q8TDB6_599_AMSYKPICPTCQTSYGIQK (UniProt Q8TDB6),0.0628,-0.118
DOK3_Q7L591_323_ERLPELTRPQPCPLPR (UniProt Q7L591),-0.123,-0.0699
DOCK11_Q5JSL3_1883_QGCIEEQCK (UniProt Q5JSL3),-0.0739,-0.14
DOCK8_Q8NF50_391_LQAESFCQR (UniProt Q8NF50),-0.00954,0.0348
DYNC1H1_Q14204_2454_CLGSLFSMLHQACR (UniProt Q14204),-0.164,0.133
EBNA1BP2_Q99848_56_QCLAEFK (UniProt Q99848),0.0622,0.00848

# Single records (already shown):
# DOCK6_Q96HP0_1619_HAELGNHAEAAQCMVHAAALVAEYLALLEDHR (UniProt Q96HP0) is entered as probe-labelled cysteine peptide fold change (10 µM): 0.167; probe-labelled cysteine peptide fold change (50 µM): -0.238
# EBNA1BP2_Q99848_56_QCLAEFKR (UniProt Q99848) is entered as probe-labelled cysteine peptide fold change (10 µM): -0.164; probe-labelled cysteine peptide fold change (50 µM): -0.0934
